The record followed here is paper PMC12514575.

The target in this test is FLAG-tagged truncated DCAF13 mutant DCAF13^SOF1Δ. Description: co-IP; lysate of 293T cells overexpressing FLAG-DCAF13 or FLAG-DCAF13^SOF1Δ; anti-FLAG or IgG on Protein A/G magnetic beads, overnight at 4 °C, six washes with PBS + 0.5% Tween-20; western blot. Background: Immunoblotting shows a protein as a band on a membrane.

No constants are given. Whether binding was seen depends on the method and setting. In cells and extracts the contact can be indirect. Binding calls can cover weak binding; strength is not graded here.

B1: TAF1A, a subunit of selective factor 1 (SL1) (protein, UniProt Q15573 1-450)
chain: MSDFSEELKGPVTDDEEVETSVLSGAGMHFPWLQTYVETVAIGGKRRKDFAQTTSACLSFIQEALLKHQWQQAAEYMYSYFQTLEDSDSYKRQAAPEIIWKLGSEILFYHPKSNMESFNTFANRMKNIGVMNYLKISLQHALYLLHHGMLKDAKRNLSEAETWRHGENTSSREILINLIQAYKGLLQYYTWSEKKMELSKLDKDDYAYNAVAQDVFNHSWKTSANISALIKIPGVWDPFVKSYVEMLEFYGDRDGAQEVLTNYAYDEKFPSNPNAHIYLYNFLKRQKAPRSKLISVLKILYQIVPSHKLMLEFHTLLRKSEKEEHRKLGLEVLFGVLDFAGCTKNITAWKYLAKYLKNILMGNHLAWVQEEWNSRKNWWPGFHFSYFWAKSDWKEDTALACEKAFVAGLLLGKGCRYFRYILKQDHQILGKKIKRMKRSVKKYSIVNPRL
For the molecule B1, the binding result was “binds”.
